Values quoted from earlier work, collected in US8623882B2, “Aciclovir and diclofenac combination therapy for functional somatic syndromes” (Innovative Med Concepts, LLC, priority 2012, dated 2014).
At least one structure is not confirmed: it was looked up by name or label, or the drawing left a doubt.

Test system: herpes viral reactivation
Conditions: nervous system of mice

Structure (SMILES): Cc1ccc(-c2cc(C(F)(F)F)nn2-c2ccc(S(N)(=O)=O)cc2)cc1 [celecoxib]
- suppression of hyperthermic stress-induced herpes viral reactivation: can suppress
